{"source": "patent US20150175663", "about": "(published 2015)", "experiment": "general procedure: solution-phase peptide synthesis; EDC.HCl/HOBt", "key": {"[1]": {"details": "late stage modification step, HCl"}}, "note": "The star is where a group is joined. Pbf = Cc1c(C)c(S(=O)(=O)*)c(C)c2c1OC(C)(C)C2; OtBu = CC(C)(C)O*", "data": [{"substance": "Ac-R(Pbf)LD(OtBu)LR(Pbf)-OH", "values": [{"measurement": "step yield", "setting": "late stage modification step, 2H2SO4, 4MsOH, 4HCl", "value": 95.6, "unit": "% yield"}]}, {"substance": "Ac-R(Pbf)LD(OtBu)LR(Pbf)LAL-OMe", "values": [{"measurement": "step yield", "setting": "coupling step, from Peptide derivative Ia, 2H2SO4, 4MsOH, 4HCl", "value": 88, "unit": "% yield"}]}, {"substance": "Ac-R(Pbf)LD(OtBu)LR(Pbf)LALR(Pbf)LD(OtBu)LR(Pbf)-NH2", "values": [{"measurement": "step yield", "setting": "coupling step, from hydrochloric acid salt of Peptide derivative Ib, 2H2SO4, 4MsOH, 4HCl", "value": 58, "unit": "% yield"}]}, {"substance": "Ac-R(Pbf)LD(OtBu)LR(Pbf)LALR(Pbf)LD(OtBu)LR(Pbf)-OMe", "values": [{"measurement": "step yield", "setting": "coupling step, from Ac-Arg(Pbf)-Leu-Asp(Ot-Bu)-Leu-Arg(Pbf)-Leu-Ala-Leu-OH, 2H2SO4, 4MsOH, 4HCl", "value": 56, "unit": "% yield"}]}, {"substance": "Ac-RLDLRLALRLDLR-NH2", "values": [{"measurement": "step yield", "setting": "late stage modification step, 2H2SO4", "value": 98, "unit": "% yield"}, {"measurement": "step yield", "setting": "late stage modification step, 4HCl, run 1", "value": 40, "unit": "% yield"}]}, {"substance": "Ac-RLDLRLLLRLDLR-NH2", "values": [{"measurement": "step yield", "setting": "late stage modification step, 4HCl", "value": 28, "unit": "% yield"}]}, {"substance": "Cl^−.H2^+-Arg(Pbf)-Leu-Asp(Ot-Bu)-Leu-Arg(Pbf)-NH2", "values": [{"measurement": "step yield", "setting": "[1]", "value": 91.2, "unit": "% yield"}]}, {"substance": "Cl^−.H2^+-Arg(Pbf)-Leu-Asp(Ot-Bu)-Leu-Arg(Pbf)-OMe", "values": [{"measurement": "step yield", "setting": "[1]", "value": 98, "unit": "% yield"}]}]}
